Values from PubChem BioAssay AID504764 (Drosophila RNAi Screening Center, 2011).
In all, the deposit lists about 22,000 reagents; this is an unselected part of those with a known target gene and a result. In the full data, 403 (1.9%) are marked active. 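Unnormalised raw counts per well; ratio z-scores behind the hit calls and whether each hit raises or lowers signal are not deposited.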 Entries without a mark were called inactive. The record does not give: the amount of reagent.

- Aim: 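Genes whose knock-down alters Notch-dependent transcription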 (primary screen)
- Cell system: Drosophila Kc167 cells
- Knock-down reagent: long dsRNA against Drosophila genes
- Duration: about 5 days (4 days dsRNA, then 24 h after transfection)
- Challenge: transfection of constitutively active membrane-tethered Notch lacking the extracellular domain, read 24 h later
- Read-out: 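Firefly luciferase from an E(spl)m3 reporter with active Notch, plus control-promoter and uninduced reporter wells for normalisation; unnormalised counts, duplicate wells a and b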
- Direction: induced reporter light, run 1, well a and induced reporter light, run 1, well b: higher = more light from the Notch target reporter with active Notch; control promoter light, run 1, well a and control promoter light, run 1, well b: higher = more light from the viral control promoter (cell number, transfection, viability); uninduced reporter light, run 1, well a: higher = more light from the Notch target reporter without active Notch
- Call rule: 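Hit if the duplicate-averaged log2 ratio of induced to control-promoter light gives a plate-wise z beyond ±2, or induced to uninduced beyond ±1.8; weak-control or discordant-duplicate wells dropped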
- Calls: active = modifier hit (raised or lowered Notch signal); inactive = not a hit

Duox [DRSC00571] | induced reporter light, run 1, well a: 1.45e5; induced reporter light, run 1, well b: 1.25e5; control promoter light, run 1, well a: 1.13e5; control promoter light, run 1, well b: 1.03e5; uninduced reporter light, run 1, well a: 10615
Nt5c [DRSC06711] | induced reporter light, run 1, well a: 3.22e5 (active); induced reporter light, run 1, well b: 2.51e5; control promoter light, run 1, well a: 1.90e5; control promoter light, run 1, well b: 1.58e5; uninduced reporter light, run 1, well a: 16265
Ras85D [DRSC16814] | induced reporter light, run 1, well a: 92535; induced reporter light, run 1, well b: 90545; control promoter light, run 1, well a: 94230; control promoter light, run 1, well b: 63430; uninduced reporter light, run 1, well a: 4510
Tsp29Fb [DRSC03233] | induced reporter light, run 1, well a: 1.09e5; induced reporter light, run 1, well b: 1.22e5; control promoter light, run 1, well a: 84970; control promoter light, run 1, well b: 90370; uninduced reporter light, run 1, well a: 15700
dos [DRSC07992] | induced reporter light, run 1, well a: 9050; induced reporter light, run 1, well b: 8215; control promoter light, run 1, well a: 4990; control promoter light, run 1, well b: 4545; uninduced reporter light, run 1, well a: 3992
dos [DRSC08713] | induced reporter light, run 1, well a: 98225 (active); induced reporter light, run 1, well b: 1.24e5; control promoter light, run 1, well a: 95705; control promoter light, run 1, well b: 81305; uninduced reporter light, run 1, well a: 6930
Cdk5 [DRSC07359] | induced reporter light, run 1, well a: 1.08e5; induced reporter light, run 1, well b: 93465; control promoter light, run 1, well a: 1.88e5; control promoter light, run 1, well b: 2.04e5; uninduced reporter light, run 1, well a: 8875
ND-51L2 [DRSC07080] | induced reporter light, run 1, well a: 92415; induced reporter light, run 1, well b: 94380; control promoter light, run 1, well a: 1.06e5; control promoter light, run 1, well b: 95695; uninduced reporter light, run 1, well a: 7005

Entries above whose gene name starts with N or n:
Nt5c [DRSC06711] | induced reporter light, run 1, well a: 3.22e5 (active); induced reporter light, run 1, well b: 2.51e5; control promoter light, run 1, well a: 1.90e5; control promoter light, run 1, well b: 1.58e5; uninduced reporter light, run 1, well a: 16265
ND-51L2 [DRSC07080] | induced reporter light, run 1, well a: 92415; induced reporter light, run 1, well b: 94380; control promoter light, run 1, well a: 1.06e5; control promoter light, run 1, well b: 95695; uninduced reporter light, run 1, well a: 7005

Continued.
JhI-26 [DRSC06851] | induced reporter light, run 1, well a: 1.48e5; induced reporter light, run 1, well b: 1.37e5; control promoter light, run 1, well a: 2.76e5; control promoter light, run 1, well b: 2.47e5; uninduced reporter light, run 1, well a: 12245
CG34338 [DRSC17535] | induced reporter light, run 1, well a: 88510; induced reporter light, run 1, well b: 1.03e5; control promoter light, run 1, well a: 1.00e5; control promoter light, run 1, well b: 87035; uninduced reporter light, run 1, well a: 6820
kmg [DRSC02829] | induced reporter light, run 1, well a: 1.49e5; induced reporter light, run 1, well b: 1.39e5; control promoter light, run 1, well a: 1.27e5; control promoter light, run 1, well b: 1.28e5; uninduced reporter light, run 1, well a: 11730
mRpL36 [DRSC10337] | induced reporter light, run 1, well a: 2.46e5; induced reporter light, run 1, well b: 2.49e5; control promoter light, run 1, well a: 2.48e5; control promoter light, run 1, well b: 2.37e5; uninduced reporter light, run 1, well a: 17085
CG18635 [DRSC06780] | induced reporter light, run 1, well a: 1.70e5; induced reporter light, run 1, well b: 1.73e5; control promoter light, run 1, well a: 2.63e5; control promoter light, run 1, well b: 2.29e5; uninduced reporter light, run 1, well a: 12500
RhoGAP1A [DRSC20649] | induced reporter light, run 1, well a: 83840; induced reporter light, run 1, well b: 98180; control promoter light, run 1, well a: 1.03e5; control promoter light, run 1, well b: 1.19e5; uninduced reporter light, run 1, well a: 12030
RhoGAP1A [DRSC20651] | induced reporter light, run 1, well a: 97585; induced reporter light, run 1, well b: 93885; control promoter light, run 1, well a: 1.12e5; control promoter light, run 1, well b: 1.18e5; uninduced reporter light, run 1, well a: 12000
CG9737 [DRSC16550] | induced reporter light, run 1, well a: 1.63e5; induced reporter light, run 1, well b: 1.36e5; control promoter light, run 1, well a: 1.79e5; control promoter light, run 1, well b: 1.75e5; uninduced reporter light, run 1, well a: 11955
CG12325 [DRSC06130] | induced reporter light, run 1, well a: 1.20e5; induced reporter light, run 1, well b: 1.30e5; control promoter light, run 1, well a: 1.18e5; control promoter light, run 1, well b: 1.01e5; uninduced reporter light, run 1, well a: 9820
CG2021 [DRSC08546] | induced reporter light, run 1, well a: 1.30e5; induced reporter light, run 1, well b: 1.12e5; control promoter light, run 1, well a: 2.19e5; control promoter light, run 1, well b: 1.36e5; uninduced reporter light, run 1, well a: 4328
